In all, about 3,200 compounds were measured (“TSA(with NAD+) / Primary screening (TSA) / delta Tm (K)”: median about -0.04, highest 2% from about 0.37 on). Some of the results follow.
Molecular target: NAD-dependent deacetylase Sirtuin 1 (human, UniProt Q96EB6)
Experiment: primary screen, delta tm
Design: single well (n = 1, as 'the same TSA')
Details: 10 µM

Protein sequences, listed by entry. Tags and fused reporters are not part of them. Residues count along the entry.
UniProt Q96EB6, 2-747 limits assumed: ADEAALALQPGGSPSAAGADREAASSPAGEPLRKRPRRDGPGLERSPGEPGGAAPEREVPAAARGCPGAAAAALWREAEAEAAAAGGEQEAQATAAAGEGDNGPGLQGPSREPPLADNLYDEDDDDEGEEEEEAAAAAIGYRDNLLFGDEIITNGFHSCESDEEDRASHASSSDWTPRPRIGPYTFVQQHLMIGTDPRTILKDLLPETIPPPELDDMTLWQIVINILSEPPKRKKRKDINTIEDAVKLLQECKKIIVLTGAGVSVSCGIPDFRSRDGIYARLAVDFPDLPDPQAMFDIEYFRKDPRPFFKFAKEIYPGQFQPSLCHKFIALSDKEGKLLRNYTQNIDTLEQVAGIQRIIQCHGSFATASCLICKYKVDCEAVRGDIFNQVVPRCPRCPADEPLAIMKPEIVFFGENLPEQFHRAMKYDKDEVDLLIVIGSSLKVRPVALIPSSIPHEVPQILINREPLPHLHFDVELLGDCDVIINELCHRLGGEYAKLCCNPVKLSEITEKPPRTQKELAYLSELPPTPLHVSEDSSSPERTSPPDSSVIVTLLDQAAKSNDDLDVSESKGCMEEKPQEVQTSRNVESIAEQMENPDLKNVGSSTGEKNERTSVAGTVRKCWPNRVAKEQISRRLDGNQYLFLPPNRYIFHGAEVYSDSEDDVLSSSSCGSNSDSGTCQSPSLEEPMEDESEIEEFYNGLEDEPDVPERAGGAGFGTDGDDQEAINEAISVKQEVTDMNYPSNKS

Structure (SMILES) | TSA(with NAD+) / Primary screening (TSA) / delta Tm (K)
O=C1NC(=S)NC(=O)C1=NNc1cccc(OC(F)F)c1 | -0.04 K
Cc1ccc(OCc2nnc(SCc3ccccc3)n2N)c(C)c1 | 0.03 K
COc1ccc(C(=O)C2=C(O)C(=O)N(CCCN3CCOCC3)C2c2ccc(Cl)cc2)cc1C (stereo not drawn) | -0.08 K
CCOC(C)CN (stereo not drawn) | -0.16 K
COC(=O)CSc1nc2ccc(OC)cc2[nH]1 | 0.02 K
Cc1ccc(Oc2ccc(NC(=O)c3cncc(Br)c3)cc2)cc1 | -0.26 K
NC(=O)c1csc(C(=O)NCc2ccn(-c3ccccc3F)n2)c1 | -0.08 K
Cc1cc2occ(CC(=O)N3CCC(C(N)=O)C3)c2cc1C(C)C (stereo not drawn) | 0.08 K
Cc1nc2c3ccccc3nc(SCC(=O)Nc3cc(C(F)(F)F)ccc3-n3cncn3)n2n1 | -0.03 K
CC(=O)OCC1OC(COc2ccc(C(=O)Cc3csc(-c4ccccc4)n3)c(O)c2)C(OC(C)=O)C(OC(C)=O)C1OC(C)=O (stereo not drawn) | -0.09 K
Cc1ccccc1N1C(=O)c2ccc(C(=O)NCC34CC5CC(CC(C5)C3)C4)cc2C1=O | 0.26 K
Cc1cc(=O)oc2cc(OCC(=O)NC3CCC4CCCCC4C3)ccc12 (stereo not drawn) | 0.05 K
O=C(COC(=O)c1cccc(NS(=O)(=O)/C=C/c2ccccc2)c1)NC12CC3CC(CC(C3)C1)C2 | -0.01 K
Cc1ccc(NC(=O)CN2CSCC2=O)c(OCCN(C)C)c1 | 0.09 K
CCOCC(O)CN (stereo not drawn) | 0.02 K
CC1CCc2[nH]c3ccc(C(=O)Nc4cccc(S(=O)(=O)N(C)c5ccccc5)c4)cc3c2C1 (stereo not drawn) | 0.39 K
O=C(NNC1c2ccccc2-c2ccccc21)C1COc2ccccc2O1 (stereo not drawn) | 0.06 K
Cc1ccc2nc(C)c(C(=O)Nc3cccc(-c4nnn[nH]4)c3)cc2c1 | -0.18 K
c1ccc(-c2[nH]c3ccccc3c2-c2ccccc2)cc1 | 0.39 K
COc1cccc(-c2noc(COC(=O)C3CCCN3C(=O)C34CC5CC(CC(C5)C3)C4)n2)c1 (stereo not drawn) | 0.03 K
COCCN(C)Cc1ccc(-c2cccc(F)c2C)o1 | -0.11 K
Cc1ccc(-c2nn(-c3ccccc3)cc2C=C2C(=O)NC(=O)NC2=O)o1 | -0.59 K
OC1CCCCC1Nc1cnc2ccccc2n1 (stereo not drawn) | 0.08 K

Structure (SMILES) | TSA(with NAD+) / Primary screening (TSA) / delta Tm (K)
NC(=O)C(NC(=O)COc1ccc(C(=O)c2ccccc2)cc1)C(N)=O | -0.03 K
Cc1nc(-c2ccccn2)nc(N2CCCC(C(N)=O)C2)c1C (stereo not drawn) | -0.06 K
NC(=S)c1ccc(C(=O)NC2CCSc3c(F)cccc32)cc1 (stereo not drawn) | -0.23 K
CCCCn1c(COc2ccc(N(C)S(=O)(=O)c3ccc(C)cc3)cc2)nc2cc(S(N)(=O)=O)ccc21 | -0.03 K
CC(C)(C)OC(=O)N1CCC(CC(=O)Nc2ccccc2-c2nc3ccccc3[nH]2)CC1 | 0.25 K
C=CCNC(=O)CN1CCN(c2ncnc3sc4c(c23)CCC4)CC1 | -0.18 K
O=C(COC(=O)C(Cc1ccccc1)NC(=O)c1ccccc1)NCC12CC3CC(CC(C3)C1)C2 (stereo not drawn) | -0.12 K
Cc1nc(N2CCC(C(N)=O)CC2)c2c3c(sc2n1)CCCC3 | 0.57 K
COCC(C)C(=O)O (stereo not drawn) | 0.01 K
NC(=O)c1cnc(NC(=O)Cc2cc3c(ccc4ccccc43)o2)s1 | 0.11 K
Cc1ccc2nc(-c3ccc(NC(=O)C(C)Cl)cc3)sc2c1 (stereo not drawn) | 0.19 K
COc1ccccc1C(=O)NC(CCSC)C(=O)NCCN1C(=O)S/C(=C/c2ccc3c(c2)OCO3)C1=O (stereo not drawn) | 0.07 K
Oc1ccccc1N1CCN(CCCc2cncc(F)c2)CC1 | 0.05 K
CCCCNC(=O)CN1CCN(c2ncnc3cc(Cl)ccc23)CC1 | -0.01 K
O=C(O)C1CC(=O)N(c2cccc(-c3nc(C4CC4)no3)c2)C1 (stereo not drawn) | -0.22 K
CN(c1cnccn1)S(=O)(=O)c1ccc2c(c1)C(C)(C)C(=O)N2 | 0.09 K
Cc1ccc2c(COc3ncnc4sc5c(c34)CCCC5)cc(=O)oc2c1 | 0.16 K
CCc1ccc(C(CO)NCc2cn3cc(Cl)ccc3n2)cc1 (stereo not drawn) | 0.07 K
C=CCOc1ccc(C2C(C(=O)c3ccccc3)=C(O)C(=O)N2CCCN2CCOCC2)cc1 (stereo not drawn) | -0.02 K
Cc1ccc2oc(=N)c3c(N)nc(-c4ccc5c(c4)OCO5)cc3c2c1 | -0.03 K
CCC(=O)c1ccc(OCC(=O)NNC(=O)c2cc(C)oc2C)cc1 | -0.03 K
Cc1cc(C)cc(OCC(=O)N2Cc3ccccc3CC2C(=O)O)c1 (stereo not drawn) | -0.13 K

Rewritten as a markdown table: entries from further up

| Structure (SMILES) | TSA(with NAD+) / Primary screening (TSA) / delta Tm (K) |
| --- | --- |
| O=C(O)C1CC(=O)N(c2cccc(-c3nc(C4CC4)no3)c2)C1 (stereo not drawn) | -0.22 K |
| CN(c1cnccn1)S(=O)(=O)c1ccc2c(c1)C(C)(C)C(=O)N2 | 0.09 K |

Reference: PMC6925144, “A prospective compound screening contest identified broader inhibitors for Sirtuin 1” (Scientific Reports, 2019)
